In paper PMC10591015:
These are yes or no findings as the source states them, for the method shown. Binding seen in cells or lysates may run through a third protein. Some entries that bind do so weakly or less than the wild type.

Amino acid sequences for entries named in this document (tags omitted). A change or cut given only in a name is not applied to a line headed by its entry. Chains listed by the source or under a name are the forms on record and can include a tag or linker.
flag-tagged mouse NELFB WT (in MEFs) (Q8C4Y3, form named): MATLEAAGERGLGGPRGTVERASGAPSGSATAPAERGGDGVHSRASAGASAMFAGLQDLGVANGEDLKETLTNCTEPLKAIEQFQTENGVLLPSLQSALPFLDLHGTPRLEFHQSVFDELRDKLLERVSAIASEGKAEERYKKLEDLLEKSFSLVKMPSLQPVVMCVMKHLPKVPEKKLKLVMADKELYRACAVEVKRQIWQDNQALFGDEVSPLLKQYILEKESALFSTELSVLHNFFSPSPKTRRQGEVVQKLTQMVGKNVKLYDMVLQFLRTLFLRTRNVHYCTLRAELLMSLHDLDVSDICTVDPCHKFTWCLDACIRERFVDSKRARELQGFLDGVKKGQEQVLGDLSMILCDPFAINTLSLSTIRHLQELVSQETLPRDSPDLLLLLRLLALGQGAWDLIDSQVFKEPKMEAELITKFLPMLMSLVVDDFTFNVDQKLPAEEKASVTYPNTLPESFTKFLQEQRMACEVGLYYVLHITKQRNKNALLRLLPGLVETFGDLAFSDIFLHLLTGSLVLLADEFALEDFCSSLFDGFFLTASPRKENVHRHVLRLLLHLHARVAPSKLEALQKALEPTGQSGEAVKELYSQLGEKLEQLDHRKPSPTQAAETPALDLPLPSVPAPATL
UniProt Q8BG30: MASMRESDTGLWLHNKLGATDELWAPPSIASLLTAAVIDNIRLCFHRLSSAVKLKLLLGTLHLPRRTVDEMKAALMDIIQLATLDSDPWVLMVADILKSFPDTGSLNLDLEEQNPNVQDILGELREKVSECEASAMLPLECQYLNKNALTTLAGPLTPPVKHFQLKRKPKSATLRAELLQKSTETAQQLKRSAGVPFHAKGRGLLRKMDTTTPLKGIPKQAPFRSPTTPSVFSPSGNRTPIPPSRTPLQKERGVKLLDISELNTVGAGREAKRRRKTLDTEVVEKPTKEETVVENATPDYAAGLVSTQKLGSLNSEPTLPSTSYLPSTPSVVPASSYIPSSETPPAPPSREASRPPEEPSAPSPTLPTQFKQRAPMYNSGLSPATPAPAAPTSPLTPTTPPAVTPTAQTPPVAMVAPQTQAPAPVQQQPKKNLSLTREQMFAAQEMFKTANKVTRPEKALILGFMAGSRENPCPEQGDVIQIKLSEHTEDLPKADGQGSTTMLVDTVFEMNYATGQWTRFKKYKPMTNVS
UniProt Q922L6: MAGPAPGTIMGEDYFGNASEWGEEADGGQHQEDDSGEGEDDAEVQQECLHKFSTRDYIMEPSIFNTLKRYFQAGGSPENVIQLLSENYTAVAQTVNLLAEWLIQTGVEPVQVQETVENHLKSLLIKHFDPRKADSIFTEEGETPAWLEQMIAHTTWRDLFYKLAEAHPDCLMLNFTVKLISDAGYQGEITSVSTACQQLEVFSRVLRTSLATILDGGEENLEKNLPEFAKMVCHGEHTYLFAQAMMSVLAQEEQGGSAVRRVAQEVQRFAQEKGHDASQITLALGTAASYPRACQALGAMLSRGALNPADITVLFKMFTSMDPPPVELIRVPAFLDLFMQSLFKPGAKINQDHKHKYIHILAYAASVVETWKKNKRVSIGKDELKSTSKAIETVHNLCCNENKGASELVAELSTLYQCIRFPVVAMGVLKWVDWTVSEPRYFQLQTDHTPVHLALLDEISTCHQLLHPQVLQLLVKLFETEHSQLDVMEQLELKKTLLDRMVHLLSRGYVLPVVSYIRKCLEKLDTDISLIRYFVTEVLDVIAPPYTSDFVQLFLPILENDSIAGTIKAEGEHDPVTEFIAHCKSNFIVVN
UniProt P19426: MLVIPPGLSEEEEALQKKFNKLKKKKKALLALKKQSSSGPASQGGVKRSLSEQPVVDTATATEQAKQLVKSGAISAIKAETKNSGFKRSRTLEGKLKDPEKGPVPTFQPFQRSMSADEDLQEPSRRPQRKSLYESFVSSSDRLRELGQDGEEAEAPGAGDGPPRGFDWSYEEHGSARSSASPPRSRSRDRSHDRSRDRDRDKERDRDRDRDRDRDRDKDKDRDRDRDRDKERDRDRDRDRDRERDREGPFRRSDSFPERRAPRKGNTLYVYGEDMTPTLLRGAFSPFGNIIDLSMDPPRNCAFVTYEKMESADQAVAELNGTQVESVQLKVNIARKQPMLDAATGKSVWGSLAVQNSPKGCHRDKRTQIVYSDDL

target: flag-tagged mouse NELFB WT (in MEFs) (mouse) (UniProt Q8C4Y3); assay: co-IP; MEFs with flag-tagged mouse NELFB WT or mutants; whole-cell lysate in NP-40 lysis buffer, flag M2 magnetic agarose beads at 4 °C overnight, elution with 3x flag peptide, Western blotting of NELF subunits

binding	Substance
binds	NELFA (endogenous, MEFs) (from UniProt Q8BG30 1-530)
binds	NELFC (endogenous, MEFs) (from UniProt Q922L6 1-591)
binds	NELFE (endogenous, MEFs) (from UniProt P19426 1-375)
